Data as given in the supplement of paper PMC3334620.
The full ranking holds about 33,000 sequences; the median of “E-score (-0.5 to 0.5)” is about -0.0034, and the highest 2% start at about 0.25. The list shows a part of the results.

Each sequence was assayed against T1, Yap3 (UniProt P38749) (assay: PBM E-score (8-mer binding enrichment) (E-score (-0.5 to 0.5)); higher = stronger / more preferred TF binding). Details: protein concentration: 100 nM; construct: GST-full length.
T1 sequence: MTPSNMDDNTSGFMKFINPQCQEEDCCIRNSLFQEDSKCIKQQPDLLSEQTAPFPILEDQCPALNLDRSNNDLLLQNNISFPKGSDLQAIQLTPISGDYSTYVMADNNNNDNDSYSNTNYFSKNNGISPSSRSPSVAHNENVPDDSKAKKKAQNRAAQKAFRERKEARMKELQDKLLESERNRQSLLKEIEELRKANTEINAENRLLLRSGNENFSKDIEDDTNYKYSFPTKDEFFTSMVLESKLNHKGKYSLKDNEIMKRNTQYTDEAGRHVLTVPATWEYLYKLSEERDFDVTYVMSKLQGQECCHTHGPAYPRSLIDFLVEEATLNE
Procedure, shortened: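 Universal all-10-mer Agilent arrays, double-stranded by primer extension on fresh or once-stripped slides, were probed with about 100-200 nM GST-tagged yeast transcription factors made by PURExpress. Fluorescent anti-GST detected bound protein, and masliner normalised the scans. E-scores from the Universal PBM Analysis Suite were given to each ungapped eight-base word pooled with its reverse complement.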

Sequence | PBM E-score
ATGGGGGG | -0.351
ACGTGCAC | 0.0895
GCCTGAGC | -0.197
ACTACGGG | -0.184
AGCGAGCG | 0.0566
GATATTAA | 0.212
GATCTTAC | 0.0656
GACACGTC | -0.209
CTTCAAGA | 0.036
AATACACG | 0.0582
AGCCCTCC | -0.235
CGAGGCGA | 0.0455
CGACATGC | 0.0571
AGTTACGA | 0.213
AGGCGGAC | -0.0486
AACTTTAG | 0.0879
CTCTCTTC | -0.181
AAGCTCAA | -0.178
GCTGAAGC | -0.139
CTTGCCTA | -0.108
AGACTGAC | -0.124
ACTGGGCT | -0.239
GTTAAGGA | -0.0357
AGTAATTG | 0.164
AGTTCGTC | 0.0313

Sequence | PBM E-score
CACCGGCA | -0.0569
CTGCGTCA | -0.056
CGCGTCCC | -0.133
ATTGCCTA | -0.168
ATGTATAG | 0.168
ACGCTCCG | -0.22
GATCTTAA | 0.116
AGGCTTCG | -0.0931
GCACGCGC | -0.0469
ACGAGATC | -0.00149
CAGCTGCG | -0.159
ACGACACC | 0.0139
CATGCAAA | 0.121
CATCTCAG | 0.214
GACATTTA | 0.0833
CATCATCA | -0.0145
AGCACTCA | -0.0397
CGTACACG | -0.0424
AAGGGCGG | -0.178
ACCGTAGA | 0.0691
GTACTTCA | 0.287
AACCACCG | -0.0601
ACGCGGAA | 0.0747
CTATCGAA | 0.134
AGATGCGG | 0.00762

Sequence | PBM E-score
GGCCAAAA | -0.017
CACCATAG | -0.194
CATAACAC | 0.141
CCAACCTA | -0.0656
ATTGTCCC | -0.0533
GATAACCC | -0.116
CGACGAAA | 0.164
AATTCCAT | 0.111
CGGTCTGC | -0.152
GACTTGGA | -0.023
CCGGTATC | -0.113
AACGCAGG | -0.0496
AAAGAAGA | 0.0167
ACGGTGGC | -0.0704
CGTTGGAC | -0.13
CAAATGGC | -0.0048
ACGATGAA | 0.0863
ACCCGGTG | -0.243
ACAACCCG | -0.0235
GGCCGCTA | -0.191
ACATTTGC | 0.0539
ACAGAATG | 0.0204
AAAACGCA | 0.0949
ACCTGATG | -0.0717
AGCAAGTA | 0.146

Sequence | PBM E-score
ATAGTATC | 0.194
AATGGACC | 0.0727
CTGCTATC | 0.0643
GGTCTTGA | -0.155
CTGAGGAA | -0.0654
AGGGTTAA | -0.101
AAAGCCAG | 0.0805
AATTCGGG | 0.043
TGACTTAA | 0.111
ACACAAGC | 0.0803
CATCCTAA | 0.0568
ACACTACT | 0.174
CGAATCCC | -0.0351
AAATTCAA | 0.117
CCCCGTCC | -0.327
AAGCCGCG | -0.0993
CCGCATGA | -0.136
ACGCCATA | 0.0832
CCTCTAGC | -0.189
CAGCCAGG | -0.0639
CATGACAA | 0.143
GAGAATAC | 0.115
CTAGGCCA | -0.0903
TCTTGAAA | 0.173
ATACCCAT | 0.0631

Sequence | PBM E-score
CTTTGTAC | 0.0552
AACACGTG | 0.205
ACTGCCAG | -0.0114
GGTCTTAA | -0.237
AACCGGCC | -0.209
GTGACTGA | 0.167
GCGAGAAA | 0.116
GTAAACGA | 0.0279
CTGGGGCA | -0.309
TAACGTCA | 0.0893
AGAACCCC | -0.184
AGAGAAAC | 0.156
CCAATGCA | 0.0288
AAGGCGCA | -0.036
CCGAAAGG | -0.13
CACGACGG | 0.116
CGATAGCC | -0.0534
AGGTGAAT | 0.0312
ACATCCAG | 0.0264
ACTGCCTA | -0.0156
AAAAGTAA | 0.246
CCACCTCG | -0.214
CTCGTATA | -0.142
TGTATGAA | 0.111
AACTTCAT | 0.145

Sequence | PBM E-score
GGGATTCA | 0.0245
CCTGTTCG | 0.0413
GAGGGGCA | -0.299
GAGTAACC | 0.112
GGAAGGTA | -0.0252
CAATAGGC | -0.0943
CAATGAGG | -0.145
AGTGCTAT | 0.0685
GAAAGATC | -0.0498
GGGGGGAA | -0.206
CTGTATGC | -0.0877
GGACGGAA | -0.125
AGCCCCCG | -0.415
CGCCAACG | -0.119
ACAAGATA | 0.136
GCAGCGAC | -0.269
GGTTGCCA | -0.0346
CCAGTAAG | -0.0333
GCTCCTAC | -0.234
GCGCAGCA | -0.307
CTAAGCGA | 0.00759
ATGACTAC | 0.0437
ACTGCGAA | -0.187
AGGGTAGA | -0.0934
GGTACGGA | -0.0413

Some of the entries above in another layout.

| Sequence | PBM E-score |
| --- | --- |
| GCAGCGAC | -0.269 |
| GGTTGCCA | -0.0346 |

Continued.

Sequence | PBM E-score
CATGTCGC | 0.0256
ACGTCCCA | -0.201
AGCTAGGC | -0.207
CAGCCTAG | 0.0532
AAGCAAAT | 0.0796
ATCACGAG | -0.127
AGGACCAG | -0.141
AGCGTAAG | 0.0664
GCTATCCC | -0.111
ACGCTTTG | 0.113
CTGGTAAA | 0.0949
ATTGAACG | 0.0667
ATCGTTGC | 0.0555
CCCTTCTA | -0.143
ACTGGCGC | -0.116
ACTCTGAT | 0.0185
AGCCGCCT | -0.096
GGCACAGA | -0.233
CGCGGACG | -0.072
AACGAAGT | -0.0967
GACGGCGA | -0.184
ACATTCCG | 0.0451

A different layout for some results above:
Sequence	PBM E-score
GAAAGATC	-0.0498
GGGGGGAA	-0.206
CTGTATGC	-0.0877
GGACGGAA	-0.125
AGCCCCCG	-0.415
CGCCAACG	-0.119
ACAAGATA	0.136
GCAGCGAC	-0.269
GGTTGCCA	-0.0346
CCAGTAAG	-0.0333
GCTCCTAC	-0.234
GCGCAGCA	-0.307
CTAAGCGA	0.00759
ATGACTAC	0.0437
ACTGCGAA	-0.187
AGGGTAGA	-0.0934
GGTACGGA	-0.0413
CATGTCGC	0.0256
ACGTCCCA	-0.201
AGCTAGGC	-0.207
CAGCCTAG	0.0532
AAGCAAAT	0.0796
ATCACGAG	-0.127
AGGACCAG	-0.141
AGCGTAAG	0.0664
GCTATCCC	-0.111
ACGCTTTG	0.113
CTGGTAAA	0.0949
ATTGAACG	0.0667
ATCGTTGC	0.0555
CCCTTCTA	-0.143
ACTGGCGC	-0.116
ACTCTGAT	0.0185
AGCCGCCT	-0.096
GGCACAGA	-0.233
CGCGGACG	-0.072
